Assay results taken from the supplement of paper PMC12823440, “Inhibitors supercharge kinase turnover through native proteolytic circuits” (Nature, 2025).
Counter-ions that a name gives are not always drawn. This is one part of the list. The calls rarely recur for the same compound in another form.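 Kinases, fused to nanoluciferase, were expressed in K562 cells; luminescence was measured every 4 h from 2 to 18 h as percent of control (DMSO = 100%, positive control = 0%). A time point is decreased if signal falls significantly (2 sigma). Hits were called by the authors by a rule that is not shown; the count of time points alone does not decide it.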

Each compound was assayed against EGFR_G719S (UniProt P00533) (assay: kinase-Nluc reporter destabilization hit call (1 = scored as downregulated) (binary); higher = compound decreases kinase abundance). Settings: K562; 2-18 h.

kinase-Nluc reporter destabilization hit call, active:
CC(ONC(=O)c1cc(C(F)(F)F)cc(C(F)(F)F)c1)C(=O)Nc1ccc(Cl)cc1 (configuration not stated) (2.5 µM) 1

kinase-Nluc reporter destabilization hit call, inactive:
Cn1c(N2CCO[C@@H](c3ccc(F)cc3)C2)nc(-c2ccncn2)cc1=O (10 µM) 0, COc1ccc(CN2CCC(c3ccc4nc(C(=O)N5CCN(Cc6ccc(C(F)(F)F)cc6)CC5)[nH]c4c3)CC2)cn1 (2.5 µM) 0, O=C(O)c1c[nH]c2cc(Cl)c(-c3ccc(C4(O)CCC4)cc3)cc12 (10 µM) 0, CC(C)(Oc1ccc(Cl)cc1)C(=O)Nc1ccc(OCc2ccc(C#N)cc2)cc1 [AMPK activator 4] (10 µM) 0, O=C(NCc1ccn[nH]1)c1cc([C@@H]2CCNC[C@H]2COc2ccc3c(c2)OCO3)ccc1F [GRK2-IN-1 (hydrochloride)] (10 µM) 0, Cc1cnc(Cl)nc1-c1ccc(N(Cc2ccc(CNC(=O)C(F)F)cc2)C(=O)c2ccc(O)cc2O)cc1 (10 µM) 0, CC1=C(C#N)C(c2ccc3[nH]nc(C)c3c2)C(C#N)=C(C)N1 (10 µM) 0, CN(C[C@@H]1COCCO1)S(=O)(=O)Nc1ccc2ccc3ncc(-c4cnn(C)c4)cc3c(=O)c2c1 (2.5 µM) 0, CC(=O)Nc1nc(C)c(-c2cc(C)c3c(c2)CN([C@@H](C)C2CC2)C3=O)s1 (10 µM) 0, O=C(Nc1ccccc1C(=O)NC1CCCCNC1=O)c1cc2ccccc2s1 (configuration not stated) (10 µM) 0, CO[C@]1(C(=O)N[C@@H](C)c2ccc(-n3cc(F)cn3)nc2)CC[C@H](c2nc(C)cc(Nc3cc(C)[nH]n3)n2)CC1 [Pralsetinib] (10 µM) 0, O=[N+]([O-])c1ccc(-c2nc(-c3ccc(F)cc3)c(-c3ccncc3)[nH]2)cc1 (10 µM) 0, Cc1cncc2cccc(S(=O)(=O)N3CCCNC[C@@H]3C)c12 [H-1152 (dihydrochloride)] (10 µM) 0, Cc1nc(NC(=O)N2CCC[C@H]2C(N)=O)sc1-c1ccnc(C(C)(C)C(F)(F)F)c1 [Alpelisib] (2.5 µM) 0, CCCCNc1ncc2c(-c3ccc(F)cc3)nn(CC3CCC(N)CC3)c2n1 (configuration not stated) (2.5 µM) 0, CS(=O)(=O)c1ccc([C@@H](CC2CCCC2)C(=O)Nc2nccs2)cc1 (10 µM) 0, CO/N=C1/C(c2c(O)[nH]c3cc(Cl)c(Cl)cc23)=Nc2ccccc21 (10 µM) 0, CNCc1ccccc1Sc1cccc2ccccc12 [IFN alpha-IFNAR-IN-1 (hydrochloride)] (10 µM) 0, C=CC(=O)N1CCC(c2ccc(C(N)=O)c(-c3ccc(Oc4ccccc4)cc3)n2)CC1 [Orelabrutinib] (2.5 µM) 0, Cc1cc2c(F)c(Oc3ncnn4cc(OC[C@@H](C)OC(=O)[C@H](C)N)c(C)c34)ccc2[nH]1 [Brivanib (alaninate)] (10 µM) 0, CCC(F)(F)c1cc(N2CCC(S(C)(=O)=O)CC2)nc2sc(C(N)=O)c(N)c12 (10 µM) 0, NC(=O)c1c(NC(=O)C2CC2)sc2c1CCCC2 (10 µM) 0, CC(C)=CCC[C@](C)(O[C@@H]1O[C@H](CO[C@@H]2O[C@H](CO)[C@@H](O)[C@H](O)[C@H]2O)[C@@H](O)[C@H](O)[C@H]1O)[C@H]1CC[C@]2(C)[C@@H]1[C@H](O)C[C@@H]1[C@@]3(C)CC[C@H](O[C@@H]4O[C@H](CO)[C@@H](O)[C@H](O)[C@H]4O[C@@H]4O[C@H](CO)[C@@H](O)[C@H](O)[C@H]4O)C(C)(C)[C@@H]3CC[C@]12C [Ginsenoside Rb1] (10 µM) 0, COc1cccc(-c2cc(=O)c3ccccc3o2)c1N (10 µM) 0, C[C@@H]1COC(Nc2ccc3ncnc(Nc4ccc(OCc5nccs5)c(Cl)c4)c3c2)=N1 [Varlitinib] (10 µM) 0, Cc1nc(Nc2cnn(C3CCNCC3)c2)nc2c1N(C)C(=O)c1cc3ccccc3cc1N2C (2.5 µM) 0

Each compound was assayed against EGFR_G719S_T790M (UniProt P00533) in the same assay as above. Settings: K562; 2-18 h.

kinase-Nluc reporter destabilization hit call, inactive:
O=c1cc(-c2ccc(O[C@@H]3O[C@H](CO)[C@@H](O)[C@H](O)[C@H]3O)cc2)oc2cc(O)c([C@@H]3O[C@H](CO)[C@@H](O)[C@H](O)[C@H]3O[C@@H]3OC[C@H](O)[C@H](O)[C@H]3O)c(O)c12 [Vaccarin] (10 µM) 0, O=CN1CCN(c2ccc(C=C3C(=O)Nc4ccccc43)cc2)CC1 (10 µM) 0, COc1ccc(Cl)cc1N(CC(=O)Nc1ccc2c(c1)OCO2)S(=O)(=O)c1ccccc1 (2.5 µM) 0, CCc1c(C(=O)NNC(=O)[C@H](O)c2cc(F)cc(F)c2)ccc(O)c1C (10 µM) 0, CN(C)CCn1cc2cc(NC(=O)c3cccc(C(F)(F)F)n3)c(C(C)(C)O)cc2n1 (10 µM) 0, CCC[C@H](C)Oc1nc(N)c2[nH]c(=O)n(CCCCCN3CCCCC3)c2n1 (10 µM) 0, CCOC(=O)c1c(C)[nH]c(C=C2C(=O)Nc3ccccc32)c1C (10 µM) 0, Cc1ccc(NC(=O)N2CCN(c3nc(N)nc4sc(-c5cccnc5)nc34)CC2)cc1 [PI4KIII beta inhibitor 3] (10 µM) 0, CS[C@@]1(C(=O)Nc2ccc3[nH]nc(-c4ccc(OC(C)C)nc4)c3c2)CCN(CC(=O)N2CC=C(c3ccc(-c4ncn(C)n4)cc3)CC2)C1 (2.5 µM) 0, O=C(Nc1ccc(Cl)cc1)C1CN(C(=O)c2cccc(-c3ccco3)c2)CC(F)(F)C1 (configuration not stated) (2.5 µM) 0, Nc1ccc(Sc2nc3ccccc3s2)c(Cl)c1 [KRAS inhibitor-9] (10 µM) 0, Cn1c(N2CCO[C@@H](c3ccc(F)cc3)C2)nc(-c2ccncn2)cc1=O (10 µM) 0, COc1ccc(CN2CCC(c3ccc4nc(C(=O)N5CCN(Cc6ccc(C(F)(F)F)cc6)CC5)[nH]c4c3)CC2)cn1 (2.5 µM) 0, O=C(O)c1c[nH]c2cc(Cl)c(-c3ccc(C4(O)CCC4)cc3)cc12 (10 µM) 0, CC(C)(Oc1ccc(Cl)cc1)C(=O)Nc1ccc(OCc2ccc(C#N)cc2)cc1 [AMPK activator 4] (10 µM) 0, O=C(NCc1ccn[nH]1)c1cc([C@@H]2CCNC[C@H]2COc2ccc3c(c2)OCO3)ccc1F [GRK2-IN-1 (hydrochloride)] (10 µM) 0, Cc1cnc(Cl)nc1-c1ccc(N(Cc2ccc(CNC(=O)C(F)F)cc2)C(=O)c2ccc(O)cc2O)cc1 (10 µM) 0, CC1=C(C#N)C(c2ccc3[nH]nc(C)c3c2)C(C#N)=C(C)N1 (10 µM) 0, CN(C[C@@H]1COCCO1)S(=O)(=O)Nc1ccc2ccc3ncc(-c4cnn(C)c4)cc3c(=O)c2c1 (2.5 µM) 0, CC(=O)Nc1nc(C)c(-c2cc(C)c3c(c2)CN([C@@H](C)C2CC2)C3=O)s1 (10 µM) 0, O=C(Nc1ccccc1C(=O)NC1CCCCNC1=O)c1cc2ccccc2s1 (configuration not stated) (10 µM) 0, CO[C@]1(C(=O)N[C@@H](C)c2ccc(-n3cc(F)cn3)nc2)CC[C@H](c2nc(C)cc(Nc3cc(C)[nH]n3)n2)CC1 [Pralsetinib] (10 µM) 0, O=[N+]([O-])c1ccc(-c2nc(-c3ccc(F)cc3)c(-c3ccncc3)[nH]2)cc1 (10 µM) 0, CC(ONC(=O)c1cc(C(F)(F)F)cc(C(F)(F)F)c1)C(=O)Nc1ccc(Cl)cc1 (configuration not stated) (2.5 µM) 0, Cc1cncc2cccc(S(=O)(=O)N3CCCNC[C@@H]3C)c12 [H-1152 (dihydrochloride)] (10 µM) 0, Cc1nc(NC(=O)N2CCC[C@H]2C(N)=O)sc1-c1ccnc(C(C)(C)C(F)(F)F)c1 [Alpelisib] (2.5 µM) 0, CCCCNc1ncc2c(-c3ccc(F)cc3)nn(CC3CCC(N)CC3)c2n1 (configuration not stated) (2.5 µM) 0, CS(=O)(=O)c1ccc([C@@H](CC2CCCC2)C(=O)Nc2nccs2)cc1 (10 µM) 0, CO/N=C1/C(c2c(O)[nH]c3cc(Cl)c(Cl)cc23)=Nc2ccccc21 (10 µM) 0, CNCc1ccccc1Sc1cccc2ccccc12 [IFN alpha-IFNAR-IN-1 (hydrochloride)] (10 µM) 0, C=CC(=O)N1CCC(c2ccc(C(N)=O)c(-c3ccc(Oc4ccccc4)cc3)n2)CC1 [Orelabrutinib] (2.5 µM) 0, Cc1cc2c(F)c(Oc3ncnn4cc(OC[C@@H](C)OC(=O)[C@H](C)N)c(C)c34)ccc2[nH]1 [Brivanib (alaninate)] (10 µM) 0, CCC(F)(F)c1cc(N2CCC(S(C)(=O)=O)CC2)nc2sc(C(N)=O)c(N)c12 (10 µM) 0, NC(=O)c1c(NC(=O)C2CC2)sc2c1CCCC2 (10 µM) 0, CC(C)=CCC[C@](C)(O[C@@H]1O[C@H](CO[C@@H]2O[C@H](CO)[C@@H](O)[C@H](O)[C@H]2O)[C@@H](O)[C@H](O)[C@H]1O)[C@H]1CC[C@]2(C)[C@@H]1[C@H](O)C[C@@H]1[C@@]3(C)CC[C@H](O[C@@H]4O[C@H](CO)[C@@H](O)[C@H](O)[C@H]4O[C@@H]4O[C@H](CO)[C@@H](O)[C@H](O)[C@H]4O)C(C)(C)[C@@H]3CC[C@]12C [Ginsenoside Rb1] (10 µM) 0
